Several values for one entry are separate records, joined by “and”; a condition that tells them apart may be missing. Identical values can stand only once. Counter-ions that a name gives are not always drawn. The list shows a part of the results. Repeats in this data set agree poorly, so a single value says little.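 HEK293T cells were given each compound shortly before transfection with a reporter in which red mCherry is followed by the SARS-CoV-2 frameshift element and then GFP in the −1 frame, so GFP appears only after frameshifting.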
tested on: HEK293T; assay: percent viability (nuclei count) relative to control; higher = more viable cells; conditions: 10 µM; 24 h

Compound | percent viability
CCN(CC)CCCC(C)Nc1cc(OC)cc2cccnc12 (stereo not given) [pamaquine] | 148%
CC(=O)CC(c1ccccc1)c1c(O)c2ccccc2oc1=O (stereo not given) [warfarin] | 254%
NC[C@H](O)c1ccc(O)c(O)c1 [Norepinephrine] | 156%
Cc1cnc(NC(=O)C2=C(O)c3ccccc3S(=O)(=O)N2C)s1 [meloxicam] | 189%
CCN(CC)Cc1cc(Nc2ccnc3cc(Cl)ccc23)ccc1O [amodiaquine] | 280%
CN(C)c1ccc2nc3ccc(=[N+](C)C)cc-3sc2c1 | 236%
CCN(CC)CCOc1ccc2c(c1)C(=O)c1cc(OCCN(CC)CC)ccc1-2 [tilorone] | 204%
Cc1c(O)cccc1C(=O)N[C@@H](CSc1ccccc1)[C@H](O)CN1C[C@H]2CCCC[C@H]2C[C@H]1C(=O)NC(C)(C)C [nelfinavir] | 172%
CCN(CC)CCCN(c1ccccc1)C1Cc2ccccc2C1 [aprindine] | 179%
NC[C@H]1O[C@H](O[C@H]2[C@H](O)[C@@H](O[C@H]3O[C@H](CO)[C@@H](O)[C@H](N)[C@H]3O)[C@H](N)C[C@@H]2N)[C@H](O)[C@@H](O)[C@@H]1O | 152%
COc1ccc2c(c1)C(=O)N(CCc1ccc(S(=O)(=O)NC(=O)NC3CCCCC3)cc1)C(=O)C2(C)C [Gliquidone] | 261%
CN1CCN(CCCN2c3ccccc3Sc3ccc(Cl)cc32)CC1 [prochlorperazine] | 360%
CC1=C(/C=C/C(C)=C/C=C/C(C)=C\C(=O)O)C(C)(C)CCC1 [isotretinoin] | 204%
N=C(N)N/N=C/c1c(Cl)cccc1Cl [Guanabenz] | 251%
CC[C@H](c1ccc(O)cc1)[C@@H](CC)c1ccc(O)cc1 [hexestrol] | 282% and 153%
Cc1nc2c(C)cccn2c(=O)c1CCN1CCC(c2noc3cc(F)ccc23)CC1 [ocaperidone] | 253%
CN1[C@@H]2CC[C@H]1C[C@@H](OC(=O)c1c[nH]c3ccccc13)C2 [tropisetron] | 135%
O=C1CN(/N=C/c2ccc(-c3ccc([N+](=O)[O-])cc3)o2)C(=O)N1 | 275%
CC/C(=C(\c1ccccc1)c1ccc(OCCN(C)C)cc1)c1ccccc1 [tamoxifen] | 189% and 256% and 251%
CO[C@@]1(NC(=O)C2SC(=C(C(N)=O)C(=O)O)S2)C(=O)N2C(C(=O)O)=C(CSc3nnnn3C)CS[C@@H]21 (stereo not given in full) | 289%

Compound | percent viability
COc1cc([C@@H]2c3cc4c(cc3[C@@H](O[C@@H]3O[C@@H]5CO[C@@H](C)O[C@H]5[C@H](O)[C@H]3O)[C@H]3COC(=O)[C@H]23)OCO4)cc(OC)c1O [Etoposide] | 194%
CC(C)[C@H]1CC[C@H](C(=O)N[C@H](Cc2ccccc2)C(=O)O)CC1 [nateglinide] | 168%
NS(=O)(=O)c1cc(C(=O)O)c(NCc2ccco2)cc1Cl [furosemide] | 222% and 199%
O=C(O)Cc1sc(-c2ccccc2)nc1-c1ccc(Cl)cc1 [fentiazac] | 246%
Cc1ccc2nc(N)[nH]c(=O)c2c1Sc1ccncc1 [nolatrexed] | 324%
CO[C@H]1C[C@@H]2CC[C@@H](C)[C@@](O)(O2)C(=O)C(=O)N2CCCC[C@H]2C(=O)O[C@H]([C@H](C)C[C@@H]2CC[C@@H](OC(=O)C(C)(CO)CO)[C@H](OC)C2)CC(=O)[C@H](C)/C=C(\C)[C@@H](O)[C@@H](OC)C(=O)[C@H](C)C[C@H](C)/C=C/C=C/C=C/1C [Torisel] | 99.3%
COc1ccc(-c2[nH]c3ccccc3c2-c2ccc(OC)cc2)cc1 [indoxole] | 22.1%
CCOc1nc2cccc(C(=O)OCc3oc(=O)oc3C)c2n1Cc1ccc(-c2ccccc2-c2noc(=O)[nH]2)cc1 | 347%
CC(=O)O[C@H]1C(=O)[C@@]2(C)[C@H]([C@H](OC(=O)c3ccccc3)[C@]3(O)C[C@H](OC(=O)[C@H](O)[C@@H](NC(=O)c4ccccc4)c4ccccc4)C(C)=C1C3(C)C)[C@]1(OC(C)=O)CO[C@@H]1C[C@@H]2O [Taxol] | 19.3%
CN(C)CCOC(c1ccccc1)c1ccc(Br)cc1 (stereo not given) [Bromodiphenhydramine] | 455%
CCCCCCCCCCCCCCCC[N+](C)(C)C [cetrimonium bromide] | 106%
CC(=O)N[C@@H](CC(=O)N[C@@H](CCC(=O)O)C(=O)O)C(=O)O [spaglumic acid] | 234%
COCCCOc1cc(C[C@@H](C[C@H](N)[C@@H](O)C[C@H](C(=O)NCC(C)(C)C(N)=O)C(C)C)C(C)C)ccc1OC [aliskiren] | 205%
C[C@H](C(=O)O)c1cccc(C(=O)c2ccccc2)c1 [dexketoprofen] | 182%
CC(C)(C)[C@]1(O)CCN2C[C@H]3c4ccccc4CCc4cccc(c43)[C@@H]2C1 [(+)-Butaclamol·HCl] | 302%
COc1ccc2c(c1)c(CC(=O)NO)c(C)n2C(=O)c1ccc(Cl)cc1 [oxametacin] | 132%
c1ccc2c(c1)OCC(CN1CCCCC1)O2 (stereo not given) [piperoxan] | 130%
CN(C)c1ccc(O)c2c1C[C@H]1C[C@H]3[C@H](N(C)C)C(=O)C(C(N)=O)=C(O)[C@@]3(O)C(=O)C1=C2O [Minocycline] | 199%
FC(F)(F)COCC(F)(F)F | 189%
CC(C)C[C@H](NC(=O)[C@@H](COC(C)(C)C)NC(=O)[C@H](Cc1ccc(O)cc1)NC(=O)[C@H](CO)NC(=O)[C@H](Cc1c[nH]c2ccccc12)NC(=O)[C@H](Cc1cnc[nH]1)NC(=O)[C@@H]1CCC(=O)N1)C(=O)N[C@@H](CCCNC(=N)N)C(=O)N1CCC[C@H]1C(=O)NNC(N)=O [Goserelin] | 270% and 254%
